Taken from: PubChem BioAssay AID1259306 (Sanger Institute, 2017)
Purpose: 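Kinase-wide siRNA screen for partners of targeted drugs in colorectal cancer cells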 (primary screen). Cells: human SNU-C5 colorectal cancer cells. Reagents: siRNA pool against human genes. Conditions: DMSO vehicle alone, or one anchor drug: BYL719 at 1 µM, cetuximab at 5 µg/ml or trametinib at 10 nM, given 24 h into the assay. Read-out: 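Replicate-averaged viability against non-targeting pool control, given as fraction and robust z-score; separate synergy scores for BYL719, cetuximab and trametinib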. Direction: robust z-score, knock-down alone and viability, knock-down alone: higher = more viable cells. Rule for the call: 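Called essential when the robust z-score for knock-down alone is below -3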. Calls: active = essential (knock-down alone); inactive = no change alone.
This is one part, drawn at random, of 794 reagents tested. 11 of them (1.4%) were called active. 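Calls reflect knock-down alone; synergy scores play no part, so knock-downs synergising with a drug can be called no change.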 No viability above 1 is reported: the scale is capped. Not all columns of the deposit are shown. Not given: the amount of reagent, the time to read-out.

STK17A: robust z-score, knock-down alone = -0.638; viability, knock-down alone = 0.776; Outcome = inactive
NEK5: robust z-score, knock-down alone = 0.989; viability, knock-down alone = 1; Outcome = inactive
ALDH18A1: robust z-score, knock-down alone = -0.349; viability, knock-down alone = 0.816; Outcome = inactive
PIKFYVE: robust z-score, knock-down alone = 0.436; viability, knock-down alone = 0.924; Outcome = inactive
EGFR: robust z-score, knock-down alone = -0.787; viability, knock-down alone = 0.755; Outcome = inactive
IRAK3: robust z-score, knock-down alone = -1.8; viability, knock-down alone = 0.615; Outcome = inactive
MAPKAPK2: robust z-score, knock-down alone = 0.696; viability, knock-down alone = 0.96; Outcome = inactive
TSSK6: robust z-score, knock-down alone = 0.264; viability, knock-down alone = 0.9; Outcome = inactive
FBXW7: robust z-score, knock-down alone = 0.00695; viability, knock-down alone = 0.865; Outcome = inactive

Part of the list above, set out differently:
Gene,"robust z-score, knock-down alone","viability, knock-down alone",Outcome
IRAK3,-1.8,0.615,inactive
MAPKAPK2,0.696,0.96,inactive
TSSK6,0.264,0.9,inactive

Additional results follow:
SIK1: robust z-score, knock-down alone = 0.435; viability, knock-down alone = 0.924; Outcome = inactive
CLK4: robust z-score, knock-down alone = -0.122; viability, knock-down alone = 0.847; Outcome = inactive
SYK: robust z-score, knock-down alone = 0.326; viability, knock-down alone = 0.909; Outcome = inactive
PRKAA1: robust z-score, knock-down alone = -0.255; viability, knock-down alone = 0.829; Outcome = inactive
FLT3: robust z-score, knock-down alone = -0.448; viability, knock-down alone = 0.802; Outcome = inactive
AMER1: robust z-score, knock-down alone = 0.627; viability, knock-down alone = 0.95; Outcome = inactive
KCNH8: robust z-score, knock-down alone = 0.342; viability, knock-down alone = 0.911; Outcome = inactive
TTBK1: robust z-score, knock-down alone = -0.488; viability, knock-down alone = 0.797; Outcome = inactive
BMP2K: robust z-score, knock-down alone = -0.189; viability, knock-down alone = 0.838; Outcome = inactive
NRK: robust z-score, knock-down alone = 0.784; viability, knock-down alone = 0.972; Outcome = inactive
